This note sets out measurements from paper doi:10.1101/2023.01.03.522548.

Protein sequences, listed by entry. Tags and fused reporters are not part of them.
UniProt Q8N884: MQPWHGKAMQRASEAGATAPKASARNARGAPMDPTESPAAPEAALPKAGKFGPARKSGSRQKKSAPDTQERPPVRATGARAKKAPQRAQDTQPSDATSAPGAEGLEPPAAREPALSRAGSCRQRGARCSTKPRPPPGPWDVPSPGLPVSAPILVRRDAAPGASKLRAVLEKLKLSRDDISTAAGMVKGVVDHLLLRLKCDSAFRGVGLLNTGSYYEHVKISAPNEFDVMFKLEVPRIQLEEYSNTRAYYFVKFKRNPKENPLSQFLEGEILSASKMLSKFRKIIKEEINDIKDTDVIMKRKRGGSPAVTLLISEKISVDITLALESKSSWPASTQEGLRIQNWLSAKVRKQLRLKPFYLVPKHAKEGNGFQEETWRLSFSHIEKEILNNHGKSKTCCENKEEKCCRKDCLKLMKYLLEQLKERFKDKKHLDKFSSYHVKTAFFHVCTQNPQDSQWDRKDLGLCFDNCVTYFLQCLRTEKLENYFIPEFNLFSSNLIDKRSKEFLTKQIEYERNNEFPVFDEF
UniProt Q14258: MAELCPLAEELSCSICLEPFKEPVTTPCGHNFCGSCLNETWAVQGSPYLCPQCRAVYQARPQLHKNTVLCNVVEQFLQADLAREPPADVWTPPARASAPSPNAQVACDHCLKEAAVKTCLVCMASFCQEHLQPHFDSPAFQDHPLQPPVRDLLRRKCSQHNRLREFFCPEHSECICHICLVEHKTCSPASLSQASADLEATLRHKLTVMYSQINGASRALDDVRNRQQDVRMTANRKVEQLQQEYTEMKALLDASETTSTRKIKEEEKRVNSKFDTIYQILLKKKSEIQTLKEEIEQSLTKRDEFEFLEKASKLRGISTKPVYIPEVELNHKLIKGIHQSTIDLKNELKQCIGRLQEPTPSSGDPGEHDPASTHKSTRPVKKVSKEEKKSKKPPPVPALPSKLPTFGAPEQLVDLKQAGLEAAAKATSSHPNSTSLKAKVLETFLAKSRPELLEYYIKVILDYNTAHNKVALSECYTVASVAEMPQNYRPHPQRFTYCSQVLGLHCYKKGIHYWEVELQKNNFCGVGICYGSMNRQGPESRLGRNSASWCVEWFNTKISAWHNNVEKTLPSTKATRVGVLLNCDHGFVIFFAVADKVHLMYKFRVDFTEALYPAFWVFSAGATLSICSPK

Holding throughout (experiment): co-IP
The target of assay [1] is T1, Myc-HERC5 (human) (UniProt Q9UII4).
T1 sequence: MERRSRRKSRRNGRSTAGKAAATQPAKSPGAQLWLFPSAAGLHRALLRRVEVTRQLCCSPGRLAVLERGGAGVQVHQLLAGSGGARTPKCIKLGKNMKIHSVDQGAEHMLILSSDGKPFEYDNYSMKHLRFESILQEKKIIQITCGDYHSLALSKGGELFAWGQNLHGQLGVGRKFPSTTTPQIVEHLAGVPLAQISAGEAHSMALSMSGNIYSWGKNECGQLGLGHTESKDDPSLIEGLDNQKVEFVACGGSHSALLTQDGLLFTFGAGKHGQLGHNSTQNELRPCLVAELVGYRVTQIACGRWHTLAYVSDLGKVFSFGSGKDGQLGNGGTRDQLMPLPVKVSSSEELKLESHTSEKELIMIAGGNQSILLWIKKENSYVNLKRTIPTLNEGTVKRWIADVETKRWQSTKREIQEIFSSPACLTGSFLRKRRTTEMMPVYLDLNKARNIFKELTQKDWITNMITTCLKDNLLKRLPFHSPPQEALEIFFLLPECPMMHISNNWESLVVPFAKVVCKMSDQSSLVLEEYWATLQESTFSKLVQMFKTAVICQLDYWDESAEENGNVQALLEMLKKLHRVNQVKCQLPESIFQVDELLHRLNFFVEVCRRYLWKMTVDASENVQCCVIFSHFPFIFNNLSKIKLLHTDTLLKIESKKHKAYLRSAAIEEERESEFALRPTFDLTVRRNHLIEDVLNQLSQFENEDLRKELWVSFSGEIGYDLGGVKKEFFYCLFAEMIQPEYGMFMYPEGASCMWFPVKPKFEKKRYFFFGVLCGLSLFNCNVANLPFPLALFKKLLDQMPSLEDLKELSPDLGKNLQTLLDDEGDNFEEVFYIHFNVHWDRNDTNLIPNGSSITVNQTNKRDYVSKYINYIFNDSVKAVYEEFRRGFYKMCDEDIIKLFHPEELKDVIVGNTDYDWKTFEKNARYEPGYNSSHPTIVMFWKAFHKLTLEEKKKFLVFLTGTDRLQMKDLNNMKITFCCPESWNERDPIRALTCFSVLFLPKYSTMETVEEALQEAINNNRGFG

For assay [2], the target named is Flag-cGAS (human) (UniProt Q8N884).
Assay [3] addresses T2, Flag-tagged HERC5 (human) (UniProt Q9UII4).
T2 sequence: T1 sequence

Assay [4] has as its target T3, HERC5 (endogenous, interferon-induced) (human (endogenous in HAEC)) (UniProt Q9UII4).
T3 sequence: T1 sequence

Results are given in words; binding and its absence hold for the method and conditions named. Binding seen in cells or lysates may run through a third protein. Some binding calls cover weakened binding; strength is not graded here. For some of these results: Sequences can lack the tags named with a protein.

As to Flag-cGAS (from UniProt Q8N884 1-522), the binding result in assay [1] was “binds”.

Regarding Myc-EFP (from UniProt Q14258 1-630), in assay [2], the binding result was “binds weakly”. On to Myc-cGAS (from UniProt Q8N884 1-522), for which the binding result in assay [3] is given as “binds”. On to “cGAS (endogenous) (from UniProt Q8N884 1-522)”, for which the binding result in assay [4] is reported as “binds”.
